# From PubChem BioAssay AID493014 (National Center for Advancing Translational Sciences (NCATS), 2011)
# Among all 340,000 compounds or so, about 170 (0.05%) were called active. The shares of active, inactive and inconclusive entries below differ from those in the screen. Calls come from the whole dose curve; as a rule, active = well fitted inhibition curve with a large enough effect in the signal ratio, with a control signal flat (not every such curve was filed as active); inconclusive = small, poorly fitted or top-dose-only effect, or effect the other way, or a change in a side signal; inactive = flat fitted curve, though single readings scatter; the % refers to the signal ratio. A potency beside an inconclusive call is a rough fit, not a confirmed value.
# Test: qHTS Assay to Find Inhibitors of Chronic Active B-Cell Receptor Signaling;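 for activity change, negative = inhibition: plate controls were basal doxycycline-induced cells for no effect and cells given 10 µM MG132 for full effect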
# Details: ABC-DLBCL IkBa-CBG/CBR reporter, luminescence ratio (green luciferase fused to IkBa over red control in TMD8 lymphoma cells), 4 h; activity change, negative = inhibition: at 46.1 µM (top of the series) unless noted
# Outline: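 Doxycycline induced both beetle luciferases in TMD8 lymphoma cells; IKK-driven degradation limits the IkappaBalpha-fused green signal, while red luminescence normalises for cell number and nonspecific effects. Compounds tested up to 46 uM, 4 hrs.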
# Potency is the fitted concentration of half-maximal effect.
Structure (SMILES),Potency,"activity change, negative = inhibition"
O=c1[nH]c(=O)n(Cc2ccco2)c2c1C(C(F)(F)F)(C(F)(F)F)N=C(CCc1ccccc1)N2,"inconclusive: 20 µM [falling, single point]",–
COc1ccc(-c2cc(-c3cc(F)ccc3O)[nH]n2)cc1OC,"inconclusive: 35.5 µM [rising, single point]",–
CS/C(N)=N/N=C/c1ccc2c(c1)OCO2,"inconclusive: 11.2 µM [falling, partial curve, poor fit]",–
COc1ccc(NC(=O)c2ccccn2)cc1,"inconclusive: 17.8 µM [falling, partial curve]",–
COc1ccc(-c2cn3nc4c(nc3n2)CCCC4)cc1,–,inactive
O=Cc1ccc(OCc2cccc(C(F)(F)F)c2)cc1O,"inconclusive: 12.6 µM [rising, partial curve, poor fit]",–
CN(C)S(=O)(=O)c1ccc(C(=O)Nc2ccccc2SCCC#N)cc1,"inconclusive: 14.1 µM [falling, partial curve, poor fit]",–
CC1(C)Cc2c(C#N)c(N3CCN(C(=O)c4ccccc4Cl)CC3)nc(-c3ccco3)c2CS1,–,inactive
Cc1ccc(C(=O)Nc2cnc3ccccc3c2)cc1,"inconclusive: 16.4 µM [falling, partial curve]",–
Cc1cccc(C(=O)NNC2=CC(=O)CC(C)(C)C2)c1O,"inconclusive: 31.6 µM [falling, single point]",–
CCOC(=O)[C@@H]1[C@H]2COc3ccccc3[C@@H]2N2C(=O)N(c3ccccc3)C(=O)[C@@]12C,–,inactive
O=c1c(C=NCCCO)c(-c2ccccc2)[nH]n1-c1nc2ccccc2s1,–,inconclusive: -6.65%
COCCN1CCN(Cc2cn(C)nc2-c2ccc(Oc3ccccc3)cc2)CC1,–,inconclusive: 5.9%
CCCN(CCC)CCNC(=O)c1cc2c(-c3ccc(Cl)cc3)nn(C)c2s1,–,inactive
Cc1cc(C)cc(-c2nnc(SCC(=O)N3CCN(C(=O)c4ccco4)CC3)o2)c1,–,inconclusive: -0.091%
Cc1ccc(Nc2nc(N)c([N+](=O)[O-])c(NCc3ccco3)n2)cc1C,–,inconclusive: 5.22%
CCCOc1ccc(C2Nc3cccc4cccc(c34)N2)cc1,–,inconclusive: -15.5%
CCOC(=O)c1cc(NC(=O)Nc2ccc(OC)c(OC)c2)c(C)nc1C,–,inconclusive: -3.3%
COc1ccc(OC)c(C(=O)c2c(C)oc3cc([N+](=O)[O-])c(O)c([N+](=O)[O-])c23)c1,–,inconclusive: 14%
Cc1nc2cc(C(F)(F)F)ccc2n1C1CCN(CC(=O)NC(C)(C)C)CC1,–,inactive
Cc1ccc(C(C(=O)NC(C)(C)C)N(Cc2ccccc2)C(=O)c2snc(C(N)=O)c2N)o1 (stereo unspecified),–,inconclusive: -6.23%
N#Cc1cc(C#N)c(N2CCN(c3cccc(Cl)n3)CC2)nc1N,–,inconclusive: -0.0848%
COc1cc(CNCCO)cc(Br)c1OCc1cccs1,–,inconclusive: 3.73%
O=C(c1ccco1)N1CCN(c2ncnc3scc(-c4ccccc4)c23)CC1,–,inactive
Nc1nnc(CC(=O)Nc2ccccc2)s1,–,inconclusive: -5.59%
O=c1oc(-c2ccco2)nc2sc3c(c12)CCCC3,"inconclusive: 25.9 µM [falling, single point]",–

Structure (SMILES),Potency,"activity change, negative = inhibition"
O=C(Nc1ccc(N2CCOCC2)c(F)c1)c1ccncc1,"inconclusive: 29.1 µM [falling, single point]",–
COCCNC(=O)C(c1ccc(C)cc1)N(C(=O)CCC(=O)Nc1ccccn1)c1ccccc1C (stereo unspecified),–,inactive
CCOC(=O)C1=C(C)NC(C)=C(C(=O)OCC)C1/C=C/c1ccccc1OC,"inconclusive: 23.1 µM [falling, single point]",–
O=C(CSc1nnnn1C1CCCC1)NCCc1ccccc1,–,inconclusive: 4.56%
Cc1cc2ccccc2cc1CN1CCOCC1,–,inactive
Cc1ccc(C)c(N2CN(Cc3cccnc3)CNC2=S)c1,–,inactive
Cn1cccc1Cc1nnc(SCC(=O)Nc2nccs2)n1CCc1ccccc1,–,inconclusive: 6.13%
CNC(=O)c1oc(-c2ccc(Cl)cc2)nc1C,–,inconclusive: 3.31%
O=C(Nc1ccccn1)Nc1ccccc1Cl,–,inconclusive: 4.82%
COc1cccc(-c2ccc(NC(=O)C3CCCN(Cc4cnc(C)n4C)C3)cc2)c1 (stereo unspecified),–,inconclusive: -9.97%
CCN(CC(=O)NCc1ccc(F)cc1)C(=O)/C=C/c1ccc(S(=O)(=O)N(CC)CC)cc1,"inconclusive: 35.5 µM [falling, partial curve, poor fit]",–
COc1ccc(Cl)cc1C(=O)NCCCSc1ccccc1,"inconclusive: 6.31 µM [rising, partial curve, poor fit]",–
CNC(=O)c1cc2c(=O)n3cccc(C)c3nc2n(C(C)C)c1=N,–,inactive
Cc1nnc(NC(=O)c2ccc3ccccc3c2)o1,"inconclusive: 35.5 µM [cytotoxic, single point]",–
O=C(O)c1nc2nc(Cl)c(Cl)nc2[nH]1,"inconclusive: 22.4 µM [falling, partial curve, poor fit]",–
CC1CC(CN)CC(CO)C1 (stereo unspecified),–,inconclusive: -4.47%
CC[C@H](C)[C@H](NC(N)=O)C(=O)Nc1ccc(NC(C)=O)cc1,"inconclusive: 35.5 µM [falling, single point]",–
COC(=O)[C@@]1(C)[C@H]2C(=O)N(Cc3ccccc3)C(=O)[C@H]2[C@H]2CN=C(SCC(=O)c3ccccc3)N21,–,inactive
COc1ccc2[nH]c(=O)c(CN(c3ccccc3OC)S(=O)(=O)c3ccccc3)cc2c1,–,inconclusive: 0.631%
O=C(CCc1ccccc1)Nc1cc(Cl)ccc1O,"inconclusive: 18.4 µM [falling, partial curve]",–
CCOc1ccc(C(=O)NCC(=O)OCc2c(F)cccc2Cl)cc1OCC,–,inconclusive: 12.2%
CCOc1ccc2c(c1)N(C(=O)CN1C(=O)CCC1=O)C(C)(C)C=C2C,–,inactive
COc1cc(C(=O)NCc2ccc(-c3nc4ccccc4s3)cc2)cc(OC)c1OC,–,inconclusive: -20.9%
N#CCCN(C(=O)CCl)c1cccc(Cl)c1,–,inconclusive: -2.79%
COc1ccc(NC(=O)C2CCCN2S(=O)(=O)c2ccc3c(c2)CCC(=O)N3)cc1Cl (stereo unspecified),"inconclusive: 23.1 µM [falling, single point]",–

# Record cards (already shown). Values in the order: Potency	activity change, negative = inhibition
# CC[C@H](C)[C@H](NC(N)=O)C(=O)Nc1ccc(NC(C)=O)cc1 reads inconclusive: 35.5 µM [falling, single point]	–
# CCOC(=O)C1=C(C)NC(C)=C(C(=O)OCC)C1/C=C/c1ccccc1OC reads inconclusive: 23.1 µM [falling, single point]	–
